This test deals with Pde6δ-Strep-HA (retinal rod rhodopsin-sensitive cGMP 3',5'-cyclic phosphodiesterase subunit delta) (human) (UniProt O43924). Put plainly: affinity purification with mass spectrometry; Pde6δ-Strep-HA stably expressed in HEK293 pulled down from protein extracts on Strep-Tactin Sepharose beads; label-free quantitative MS (LTQ Orbitrap XL); control HEK293 cells without bait; vehicle (DMSO) treated cells, also REM treated cells; co-precipitation threshold of 2 (Pde6δ vehicle/control); three biological replicates.

Chains of the proteins cited; added tags and fusions are not shown.
UniProt P36405: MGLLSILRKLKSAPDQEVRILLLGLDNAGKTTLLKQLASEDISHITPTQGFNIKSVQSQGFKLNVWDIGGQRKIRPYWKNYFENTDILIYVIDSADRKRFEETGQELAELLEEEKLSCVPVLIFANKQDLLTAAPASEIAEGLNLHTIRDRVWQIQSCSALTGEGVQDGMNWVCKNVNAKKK

No constants are given. Whether binding was seen depends on the method and setting. In cells and extracts the contact can be indirect. A yes stands for co-enrichment or nearness to the bait. Other partners may have been found.

With Arl3 (from UniProt P36405 1-182), the binding result is recorded as “binds”.

Values taken from article PMC6158915.
